This note sets out measurements from PMC4357727.

Assay in all cases: SEC; Rat1/Rai1/Rtt103 and rat1EDD/Rai1/Rtt103 complexes purified by affinity and ion-exchange chromatography (Tris-HCl pH 7.6), then Superose 6 in 25 mM Tris-HCl pH 7.6, 80 mM NaCl, 1 mM DTT, 1 mM MgCl2, 10% glycerol; elution profiles compared
For orientation: In gel filtration, larger molecules generally elute earlier.

Test [1] has as its target T1, Rat1 (S. cerevisiae 5'-3' exoribonuclease) (S. cerevisiae) (UniProt Q02792).
T1 sequence: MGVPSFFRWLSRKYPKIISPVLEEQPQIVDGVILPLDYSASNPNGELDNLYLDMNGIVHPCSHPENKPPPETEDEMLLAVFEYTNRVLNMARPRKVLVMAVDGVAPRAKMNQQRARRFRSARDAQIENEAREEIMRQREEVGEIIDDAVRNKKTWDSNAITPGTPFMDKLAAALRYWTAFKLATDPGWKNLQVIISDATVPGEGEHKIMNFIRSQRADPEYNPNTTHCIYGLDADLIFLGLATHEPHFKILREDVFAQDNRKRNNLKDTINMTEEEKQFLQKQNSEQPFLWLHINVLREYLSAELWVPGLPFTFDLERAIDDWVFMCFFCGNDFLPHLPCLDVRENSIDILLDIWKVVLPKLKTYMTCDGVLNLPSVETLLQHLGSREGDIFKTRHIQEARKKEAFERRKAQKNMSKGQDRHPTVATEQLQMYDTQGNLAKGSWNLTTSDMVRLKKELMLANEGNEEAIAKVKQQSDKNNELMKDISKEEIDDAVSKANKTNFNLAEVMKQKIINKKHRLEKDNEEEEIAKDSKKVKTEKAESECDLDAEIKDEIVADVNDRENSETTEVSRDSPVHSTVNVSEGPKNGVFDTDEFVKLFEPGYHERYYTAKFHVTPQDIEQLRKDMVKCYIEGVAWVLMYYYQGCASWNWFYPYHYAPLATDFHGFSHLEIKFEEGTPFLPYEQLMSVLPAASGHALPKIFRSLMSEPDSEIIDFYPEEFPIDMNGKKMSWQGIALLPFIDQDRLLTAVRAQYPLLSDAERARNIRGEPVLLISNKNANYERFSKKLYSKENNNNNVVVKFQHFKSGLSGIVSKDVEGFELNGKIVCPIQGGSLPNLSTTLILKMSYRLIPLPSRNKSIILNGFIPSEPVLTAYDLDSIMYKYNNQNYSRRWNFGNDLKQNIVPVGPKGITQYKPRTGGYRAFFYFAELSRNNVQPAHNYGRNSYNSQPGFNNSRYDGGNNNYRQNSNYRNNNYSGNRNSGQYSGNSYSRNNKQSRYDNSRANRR

The target of test [2] is T2, Rat1/Rai1 complex (S. cerevisiae) (S. cerevisiae) (UniProt Q02792+P53063).
T2 sequence 1: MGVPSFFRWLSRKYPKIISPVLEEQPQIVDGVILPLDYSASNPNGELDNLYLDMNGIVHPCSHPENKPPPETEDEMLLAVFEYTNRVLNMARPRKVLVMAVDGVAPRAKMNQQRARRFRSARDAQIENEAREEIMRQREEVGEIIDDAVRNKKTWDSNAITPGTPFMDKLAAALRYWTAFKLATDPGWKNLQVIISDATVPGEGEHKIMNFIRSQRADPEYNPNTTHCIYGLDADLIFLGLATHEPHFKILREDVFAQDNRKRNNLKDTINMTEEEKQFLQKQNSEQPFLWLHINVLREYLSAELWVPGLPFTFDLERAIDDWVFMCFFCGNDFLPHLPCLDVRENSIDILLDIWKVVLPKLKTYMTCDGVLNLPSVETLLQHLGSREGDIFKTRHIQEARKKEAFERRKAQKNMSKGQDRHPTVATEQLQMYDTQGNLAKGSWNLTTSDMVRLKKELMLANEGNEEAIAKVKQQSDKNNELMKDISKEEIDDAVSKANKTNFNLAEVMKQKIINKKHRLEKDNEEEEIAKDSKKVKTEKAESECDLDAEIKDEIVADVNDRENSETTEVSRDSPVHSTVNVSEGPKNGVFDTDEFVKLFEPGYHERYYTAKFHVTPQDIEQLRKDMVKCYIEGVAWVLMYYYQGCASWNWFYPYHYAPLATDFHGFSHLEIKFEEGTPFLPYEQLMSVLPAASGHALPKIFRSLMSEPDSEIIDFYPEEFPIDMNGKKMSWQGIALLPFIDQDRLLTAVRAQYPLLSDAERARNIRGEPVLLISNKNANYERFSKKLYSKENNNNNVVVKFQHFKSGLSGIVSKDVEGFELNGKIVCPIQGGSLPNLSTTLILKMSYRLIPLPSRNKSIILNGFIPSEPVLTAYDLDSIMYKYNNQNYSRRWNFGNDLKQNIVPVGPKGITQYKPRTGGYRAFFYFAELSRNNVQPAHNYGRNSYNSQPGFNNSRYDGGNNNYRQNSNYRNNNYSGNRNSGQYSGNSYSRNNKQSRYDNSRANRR
T2 sequence 2: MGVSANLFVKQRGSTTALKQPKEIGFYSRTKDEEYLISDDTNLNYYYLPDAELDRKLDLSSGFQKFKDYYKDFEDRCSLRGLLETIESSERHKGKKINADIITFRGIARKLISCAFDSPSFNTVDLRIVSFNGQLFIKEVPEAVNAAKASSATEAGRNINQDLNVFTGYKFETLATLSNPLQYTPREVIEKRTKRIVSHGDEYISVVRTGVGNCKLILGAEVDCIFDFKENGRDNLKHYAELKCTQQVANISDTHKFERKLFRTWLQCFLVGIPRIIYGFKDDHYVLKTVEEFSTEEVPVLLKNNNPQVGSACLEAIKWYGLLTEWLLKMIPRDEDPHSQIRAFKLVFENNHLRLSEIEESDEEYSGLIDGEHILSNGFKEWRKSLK

The target of test [3] is T3, rat1 E203A/D233A/D235A (rat1EDD), catalytically inactive Rat1 (S. cerevisiae) (UniProt Q02792).
T3 sequence: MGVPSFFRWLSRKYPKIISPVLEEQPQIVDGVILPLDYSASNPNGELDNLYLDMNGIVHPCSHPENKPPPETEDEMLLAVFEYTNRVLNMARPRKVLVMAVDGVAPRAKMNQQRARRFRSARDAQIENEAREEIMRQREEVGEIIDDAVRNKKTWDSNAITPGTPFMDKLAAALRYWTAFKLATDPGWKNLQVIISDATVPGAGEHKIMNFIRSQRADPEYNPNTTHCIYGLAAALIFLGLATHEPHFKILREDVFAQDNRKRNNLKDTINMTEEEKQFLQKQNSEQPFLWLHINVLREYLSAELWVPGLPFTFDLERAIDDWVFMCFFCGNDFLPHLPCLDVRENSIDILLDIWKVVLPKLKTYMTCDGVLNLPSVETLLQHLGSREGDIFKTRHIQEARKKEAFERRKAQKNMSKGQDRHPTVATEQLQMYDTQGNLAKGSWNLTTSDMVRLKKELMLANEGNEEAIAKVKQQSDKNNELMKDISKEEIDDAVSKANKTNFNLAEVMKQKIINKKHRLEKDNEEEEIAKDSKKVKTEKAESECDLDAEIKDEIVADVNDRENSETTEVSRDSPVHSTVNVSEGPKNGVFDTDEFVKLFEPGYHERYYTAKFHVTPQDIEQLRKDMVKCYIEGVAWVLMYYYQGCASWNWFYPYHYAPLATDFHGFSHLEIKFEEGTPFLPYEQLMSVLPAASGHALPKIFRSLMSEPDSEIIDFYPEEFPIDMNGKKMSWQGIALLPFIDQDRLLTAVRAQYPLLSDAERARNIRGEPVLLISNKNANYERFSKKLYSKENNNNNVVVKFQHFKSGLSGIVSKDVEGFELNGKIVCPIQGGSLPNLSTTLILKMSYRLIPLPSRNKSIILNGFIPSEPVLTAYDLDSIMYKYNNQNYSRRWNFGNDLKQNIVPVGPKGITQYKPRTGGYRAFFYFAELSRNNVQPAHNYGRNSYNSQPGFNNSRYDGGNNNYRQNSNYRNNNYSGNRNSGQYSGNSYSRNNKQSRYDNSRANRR

The target of test [4] is T4, rat1EDD/Rai1 complex (S. cerevisiae) (UniProt Q02792+P53063).
T4 sequence 1: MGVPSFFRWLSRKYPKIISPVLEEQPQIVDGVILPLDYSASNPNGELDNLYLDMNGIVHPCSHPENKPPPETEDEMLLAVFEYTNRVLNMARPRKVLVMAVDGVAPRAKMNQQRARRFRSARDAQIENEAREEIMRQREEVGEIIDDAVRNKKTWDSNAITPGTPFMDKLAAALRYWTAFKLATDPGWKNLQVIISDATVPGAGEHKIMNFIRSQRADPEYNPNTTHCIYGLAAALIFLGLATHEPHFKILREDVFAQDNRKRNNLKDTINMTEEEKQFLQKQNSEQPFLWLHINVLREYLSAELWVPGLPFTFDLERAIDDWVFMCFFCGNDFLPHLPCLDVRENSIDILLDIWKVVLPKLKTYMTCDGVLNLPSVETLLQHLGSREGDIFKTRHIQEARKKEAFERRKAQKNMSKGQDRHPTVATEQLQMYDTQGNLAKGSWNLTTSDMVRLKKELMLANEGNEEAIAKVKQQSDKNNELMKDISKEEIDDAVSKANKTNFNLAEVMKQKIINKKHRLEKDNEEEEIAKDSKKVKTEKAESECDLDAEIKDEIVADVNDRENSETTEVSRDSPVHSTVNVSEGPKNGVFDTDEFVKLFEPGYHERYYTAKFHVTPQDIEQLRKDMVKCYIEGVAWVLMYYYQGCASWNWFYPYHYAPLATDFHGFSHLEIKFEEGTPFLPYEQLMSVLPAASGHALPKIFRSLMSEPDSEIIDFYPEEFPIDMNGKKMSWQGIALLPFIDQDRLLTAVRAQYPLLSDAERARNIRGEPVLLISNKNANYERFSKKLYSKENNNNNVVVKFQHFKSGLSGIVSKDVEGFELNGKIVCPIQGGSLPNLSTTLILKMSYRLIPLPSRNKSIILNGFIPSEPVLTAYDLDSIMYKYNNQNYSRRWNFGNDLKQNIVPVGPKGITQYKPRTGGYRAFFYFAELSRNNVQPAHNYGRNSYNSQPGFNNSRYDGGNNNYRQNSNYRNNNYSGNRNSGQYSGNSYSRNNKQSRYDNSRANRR
T4 sequence 2: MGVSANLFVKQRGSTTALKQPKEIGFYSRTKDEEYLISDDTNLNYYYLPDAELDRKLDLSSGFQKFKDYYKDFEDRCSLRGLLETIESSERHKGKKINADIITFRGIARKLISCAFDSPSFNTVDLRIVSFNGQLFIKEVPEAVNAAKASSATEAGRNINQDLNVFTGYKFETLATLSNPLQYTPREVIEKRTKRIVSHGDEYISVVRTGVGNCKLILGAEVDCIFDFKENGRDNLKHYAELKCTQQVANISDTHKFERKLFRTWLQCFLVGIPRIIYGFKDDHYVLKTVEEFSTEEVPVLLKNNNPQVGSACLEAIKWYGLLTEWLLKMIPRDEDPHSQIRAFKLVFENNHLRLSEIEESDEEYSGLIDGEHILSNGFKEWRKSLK

Results are given in words; binding and its absence hold for the method and conditions named. Some binding calls cover weakened binding; strength is not graded here.

B1: Rtt103 (S. cerevisiae) (protein, UniProt Q05543 1-409)
chain: MPFSSEQFTTKLNTLEDSQESISSASKWLLLQYRDAPKVAEMWKEYMLRPSVNTRRKLLGLYLMNHVVQQAKGQKIIQFQDSFGKVAAEVLGRINQEFPRDLKKKLSRVVNILKERNIFSKQVVNDIERSLKTESSPVEALVLPQKLKDFAKDYEKLVKMHHNVCAMKMRFDKSSDELDPSSSVYEENFKTISKIGNMAKDIINESILKRESGIHKLQSTLDDEKRHLDEEQNMLSEIEFVLSAKDPSRLNKNVDEDNIIPTYEVGDGDDDDDDGDNDDDDDDDDDDKNYDDRSNDSNYGVTNISTTDKKNEVVEKTDSEHKNSTHNPSDNQFGMKRTHDMIGHDDANDIPEKKVHLDSKTSEDGTFNSEDGHYELDIEGHVGAQTDEGVENSGGVSSSIQDLLSKLAN
As for B1, the binding result in test [1] was “binds”; in test [2], “binds”; in test [3], “binds weakly”; in test [4], “binds weakly”.
